From PubChem BioAssay AID590 (National Center for Advancing Translational Sciences (NCATS), 2007)
Hit rate of the full screen: of about 59,000 compounds, about 6,500 (11%) were called active. The shares of active, inactive and inconclusive entries below differ from those in the screen. Cut-off read from the data, not from the text of the source: active = max dye-equivalent concentration above about 10 nM; inconclusive = mostly about 1.1 nM to 9.6 nM; inactive = weaker than that.

experiment: qHTS Assay for Spectroscopic Profiling in A350 Spectral Region; details: Compound autofluorescence, 340/450 nm, Alexa 350 dye-equivalents; hits give high values

Compound | max dye-equivalent concentration
C=CCn1c(SCC(=O)N2CC(=O)Nc3ccccc32)nc2scc(-c3cccs3)c2c1=O | inconclusive: 1.1 nM
CN(C(=O)C1CCCO1)c1nnc(-c2ccncc2)s1 (stereo unspecified) | inconclusive: 4.1 nM
O=C(O)/C=C\[C@H](O)c1ccc(Cl)cc1 | inactive
O=C(CSc1nnc(-c2ccccn2)n1Cc1ccco1)c1ccccc1 | inconclusive: 7.6 nM
COC(=O)c1ccc(NS(=O)(=O)c2ccc(OC)cc2)cc1 | inconclusive: 6.7 nM
COC(=O)c1nnn(-c2nonc2N)c1CSc1ccc(Cl)cc1 | inactive
CCOC(=O)c1cnn(-c2ccccn2)c1N | inactive
COc1ccc(C(=O)N/C(N)=N/c2nc3ccccc3o2)cc1 | inconclusive: 3.9 nM
O=C(COc1ccc(S(=O)(=O)N2CCOCC2)cc1)Nc1ccc(Cl)c(C(F)(F)F)c1 | inconclusive: 7.9 nM
COc1ccc(OC)c(N/C=C2/CCCCC2=O)c1 | inconclusive: 4.9 nM
Cc1cc(C)c2c(n1)nn1c(NCCCn3ccnc3)cc(C)nc21 | active: 2700 nM
CC(C)CC(=O)N=C1SC2CS(=O)(=O)CC2N1CCc1ccccc1 (stereo unspecified) | inconclusive: 1.8 nM
CC1CC(=O)C=C(O)C1C(=O)OC(C)(C)C (stereo unspecified) | inconclusive: 4.1 nM
CCN(C(=O)CN1CCN(c2ccccc2OC)CC1)c1c(N)n(Cc2ccccc2)c(=O)[nH]c1=O | inconclusive: 1.5 nM
CC(=O)NCC(=O)OC(C)C(=O)Nc1ccc(C(C)=O)cc1 (stereo unspecified) | active: 180 nM
O=C(Cc1cccs1)N1CCCC(c2nc(-c3ccc(S(=O)(=O)N4CCCC4)cc3)no2)C1 (stereo unspecified) | inactive
Cc1ccc(C(=O)NCC2CCCO2)o1 (stereo unspecified) | inconclusive: 1.2 nM
COCc1c(C(=O)OCC(=O)N2c3ccccc3NC(=O)C2(C)C)oc2ccccc12 | active: 29 nM
Cc1csc(NC(=O)CSc2nncn2C)n1 | inconclusive: 7.1 nM

Compound | max dye-equivalent concentration
COc1cc2nc(N3CCNCC3)nc(N)c2cc1OC | inconclusive: 3.7 nM
O=C1CCC(=O)N1c1nc2n(n1)C(c1ccccc1)C=C(c1ccc(Br)cc1)N2 (stereo unspecified) | inconclusive: 7.5 nM
COc1ccc(NC(C)=O)cc1NC(=O)CSc1nnc(-c2cccnc2)n1C | inconclusive: 3 nM
O=C(Nc1c(C(=O)Nc2cccc(F)c2)oc2ccccc12)c1ccc2c(c1)OCO2 | active: 520 nM
Cn1c(=O)c2[nH]c(-c3ccccc3)nc2n(C)c1=O | inconclusive: 5.3 nM
CCCn1c(=N)n(CC(O)c2ccco2)c2ccccc21 (stereo unspecified) | inconclusive: 1.1 nM
Cc1ccc(OCC(O)Cn2c(N3CCOCC3)nc3c2c(=O)[nH]c(=O)n3C)cc1 (stereo unspecified) | inconclusive: 2.9 nM
O=C(CNCCC1=CCCCC1)Nc1ccccc1N1CCCCC1 | inactive
CCCC(c1nnnn1C(C)(C)CC)N(CCCO)Cc1cc2cc(C)cc(C)c2[nH]c1=O (stereo unspecified) | inconclusive: 5.4 nM
CCc1nc2ccccc2n(CCOCCn2c(=O)c(CC)nc3ccccc32)c1=O | inconclusive: 7.4 nM
CC1CCCCN1C(=O)COc1ccc(NC(=O)c2ccco2)cc1 (stereo unspecified) | inconclusive: 1.2 nM
CCN1CCN(Cc2nc3c(c(=O)n(C)c(=O)n3C)n2Cc2cccc3ccccc23)CC1 | active: 11 nM
O=C1c2[nH]nc(-c3ccccc3O)c2C(c2ccccc2)N1Cc1ccco1 (stereo unspecified) | inconclusive: 1.5 nM
COc1cccc(N2CC(O)=C(c3nc4ccccc4c(=O)[nH]3)C2=N)c1 | inconclusive: 3.6 nM
Cc1cc(C)nc(N2CCN(c3ncnc4c3oc3ccccc34)CC2)n1 | inconclusive: 1.4 nM
c1ccc(Cn2c(SCc3cn4cccnc4n3)nnc2-c2ccco2)cc1 | active: 43 nM
O=C(NCc1ccco1)c1cc2ccccc2c(=O)o1 | inconclusive: 4.7 nM
O=C(CSc1ncccc1-c1nc2ccccc2[nH]1)NC1CC1 | inconclusive: 8.5 nM
CCN(CC)S(=O)(=O)c1ccc2c(c1)nc(SCc1nc3ccsc3c(=O)[nH]1)n2CC | inactive

Rewritten comma-delimited: two of the compounds above
Compound,max dye-equivalent concentration
O=C(NCc1ccco1)c1cc2ccccc2c(=O)o1,inconclusive: 4.7 nM
O=C(CSc1ncccc1-c1nc2ccccc2[nH]1)NC1CC1,inconclusive: 8.5 nM

Following part:

Compound | max dye-equivalent concentration
COC(=O)c1[nH]c2cc(C)ccc2c1NC(=O)CN1CCN(C(=O)c2ccco2)CC1 | inconclusive: 1.2 nM
CCCCCNc1c(C(=O)OCC)c(=O)[nH]c2ccccc12 | inconclusive: 1.7 nM
Cc1nnc(NC2=NCCC2)o1 | inconclusive: 7.7 nM
CCOc1cc(C)c(C(C)C)cc1S(=O)(=O)NCc1ccccn1 | inconclusive: 1.4 nM
CC(C)OP(=O)(c1ccc(N(C)C)cc1)C(O)c1ccncc1 (stereo unspecified) | inconclusive: 4.6 nM
Oc1ccccc1C1Nc2cccc3cccc(c23)N1 | inconclusive: 2.3 nM
O=C(CSc1nnc(-c2ccc(O)cc2)n1Cc1ccco1)N1CCc2ccccc2C1 | inactive
Cc1ccc(Nc2ncc3c(n2)CC(c2ccco2)CC3=O)c(C)c1 (stereo unspecified) | inconclusive: 1.9 nM
C=CC1=C(C(=O)O)N2C(=O)[C@@H](NC(=O)/C(=N\OCC(=O)O)c3csc(N)n3)[C@@H]2SC1 | inactive
O=C(Cc1ccc(Cl)cc1)Nc1cccc(-c2nnc(-c3ccco3)o2)c1 | inconclusive: 1.8 nM
Cc1nn(-c2ccccc2C(=O)O)c(=O)c2ccccc12 | inactive
Cn1c2ccccc2c2c(C(=O)N3CCN(c4ccccc4)CC3)cn(C3CCCC3)c(=O)c21 | active: 13 nM
O=C(O)C(Oc1ccc2c3c(c(=O)oc2c1)CCC3)c1ccccc1 (stereo unspecified) | active: 110 nM
CC1CC(c2ccccc2)n2nc(NC(=O)CCc3ccccc3)nc2N1 (stereo unspecified) | inconclusive: 2.7 nM
COC(=O)c1ccc(C(=O)OC)c(NC(=O)CSc2nnc(-c3ccccc3Cl)o2)c1 | inconclusive: 6.1 nM
O=C(NCc1ccc2c(c1)OCO2)c1ccc2c(=O)n(C3CCCC3)c(=O)[nH]c2c1 | inconclusive: 2.5 nM
Cc1noc(C)c1C(=O)NCCC1=CCCCC1 | inconclusive: 2.6 nM
COc1ccc(-n2c(SCC(=O)OC(C)C)nnc2-c2ccccn2)cc1 | inactive

Sorted by SMILES length (largest number first): part of the list above
Compound | max dye-equivalent concentration
O=C(NCc1ccc2c(c1)OCO2)c1ccc2c(=O)n(C3CCCC3)c(=O)[nH]c2c1 | inconclusive: 2.5 nM
COC(=O)c1[nH]c2cc(C)ccc2c1NC(=O)CN1CCN(C(=O)c2ccco2)CC1 | inconclusive: 1.2 nM
CC(C)OP(=O)(c1ccc(N(C)C)cc1)C(O)c1ccncc1 (stereo unspecified) | inconclusive: 4.6 nM
